This is one part of the list. Further columns of the screen follow, without active or inactive calls. Most of these compounds were active or inconclusive in the main read-out, so they are no random draw. Words in brackets tell the shape of the fitted curve; partial curves, single points and poor fits give uncertain potencies.
Experiment: qHTS Assay for Lipid Storage Modulators in Drosophila S3 Cells;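 on cell number change: cells counted by Cell Tracker Red CMTPX staining in the red channel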
Details: BODIPY lipid droplet fluorescence, 18-24 h; for cell number change: measured here: cell count max response, cells fed with added oleic acid
How it was run: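 Laser-scanning cytometry quantifies lipid droplet accumulation (500–530 nm total intensity; droplet/cell object ratio) in oleic acid-fed (400 uM added) Drosophila S3 cells treated with a concentration series. 20 uM Triacsin C defined 100% inhibition.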

[1] = measured here: lipid fluorescence (Fed channel) AC50, cells fed with added oleic acid
[2] = measured here: cell number channel AC50, cells fed with added oleic acid

Row | SMILES | cell number change | AC50 [1] | AC50 [2]
1 | Cc1csc(C2=C(O)CN(c3ccc4c(c3)OCCOCCOCCOCCO4)C2=N)n1 | -16.1% | – | –
2 | CCN(CC)S(=O)(=O)c1ccc(NN=C2CCN(C)CC2)c([N+](=O)[O-])c1 | – | 2.91 µM [falling, partial curve, poor fit] | –
3 | O=C1C(c2cc(=O)c3ccccc3[nH]2)=C(O)c2ccccc21 | -33.5% | 5.17 µM [rising, single point] | 25.9 µM [falling, single point]
4 | O=C1NC(=Nc2ccc3ccccc3c2)S/C1=C/c1ccco1 | -12.4% | – | –
5 | C=CCn1c(-c2csc3c2CCC(C)C3)n[nH]c1=S (centres undefined) | – | 6.51 µM [rising, single point] | –
6 | O=C(NCC(c1cccnc1)N1CCN(c2ccccc2F)CC1)c1ccccc1 (centres undefined) | – | 1.84 µM [rising, partial curve] | 1.46 µM [rising, partial curve]
7 | NC(=O)CSc1nnc(COc2ccccc2)n1Cc1ccco1 | 99.7% | 0.731 µM [rising, single point] | 25.9 µM [rising, partial curve]
8 | CCN1C(=O)/C(=C2/C=CC=CN2C)OC1=S | 5.09% | – | –
9 | O=C(CC1C(=O)NCCN1C(=S)Nc1ccccc1)Nc1ccc2c(c1)OCCO2 (centres undefined) | 16.5% | 18.4 µM [rising, single point] | –
10 | O=C(Cn1nnc2c(cnn2-c2ccc(F)cc2)c1=O)Nc1ccccc1C(F)(F)F | -16.6% | 4.11 µM [falling, full curve, poor fit] | –
11 | CN(C)S(=O)(=O)n1cc(/C=C(\NC(=O)c2ccccc2Cl)C(=O)NCCCn2ccnc2)c2ccccc21 | – | 6.51 µM [rising, single point] | –
12 | Cc1ccc(N(C(=O)c2csnn2)C(C(=O)NC2CCCCC2)c2ccccn2)c(C)c1 (centres undefined) | 25.4% | – | –
13 | CC(=O)c1cccc(CN2CCCC(N3CCN(c4ccccc4F)CC3)C2)c1 (centres undefined) | -6.74% | 0.206 µM [rising, full curve, poor fit] | –
14 | CCc1ccc(C2c3[nH]c4ccccc4c3CCN2C(=O)CN2CCN(CC)CC2)cc1 (centres undefined) | -0.848% | 0.116 µM [falling, full curve, poor fit] | –
15 | CN1CCc2c(sc3nc(SCC(=O)N4CCOCC4)n(-c4ccc(Cl)cc4)c(=O)c23)C1 | 9.55% | 0.00517 µM [falling, full curve, poor fit] | –
16 | Cc1c(NC(=O)C2(C)CCCCC2)c(=O)n(-c2ccccc2)n1C | 6.5% | – | –
17 | CCOC(=O)Cc1csc(NC(=O)c2cc3c(s2)CCCC3)n1 | – | 6.51 µM [falling, single point] | 0.731 µM [falling, full curve, poor fit]
18 | COc1cccc(NC(=O)CCC2CCN(C(=O)c3c(C)noc3C)CC2)c1 | -3.58% | – | –
19 | Cc1ccc(S(=O)(=O)N(C)CC(=O)N2CCC(C(N)=O)CC2)cc1 | 26.6% | – | –
20 | COC(=O)c1ccccc1NC(=O)c1cc2ncc(Br)cn2n1 | 7% | 0.82 µM [rising, partial curve] | –
21 | COC(=O)CNc1cccc(C(F)(F)F)c1 | 20.7% | – | –

Row | SMILES | cell number change | AC50 [1] | AC50 [2]
22 | CCOC(=O)CN=C(NS(=O)(=O)c1ccc(Cl)cc1)c1ccccc1 | -7.98% | 11.6 µM [falling, partial curve] | –
23 | Cc1onc(-c2c(F)cccc2Cl)c1C(=O)NC(=S)NC1CCSC1=O (centres undefined) | -51.8% | 29.1 µM [falling, single point] | 32.6 µM [falling, single point]
24 | Cn1c(=O)c2c(nc(N3CCN(c4ccccc4)CC3)n2CCCc2ccccc2)n(C)c1=O | – | 0.58 µM [rising, partial curve, poor fit] | –
25 | COc1cccc(/C=N/NC(=O)c2cnccn2)c1OC | -3.79% | 0.291 µM [rising, partial curve, poor fit] | –
26 | Cn1ncc2c(=O)n(CC(=O)NC34CC5CC(CC(C5)C3)C4)cnc21 | -69.2% | 14.6 µM [falling, partial curve] | 8.2 µM [falling, partial curve]
27 | CC(=O)c1c(N2CCCC2)nc(=S)n(-c2ccccc2)c1C | -64.8% | – | 23.1 µM [falling, single point]
28 | CCCN1C(=O)N(C)C(N(O)C(=O)NC)C1(C)C (centres undefined) | 18.8% | 0.259 µM [rising, full curve, poor fit] | –
29 | O=C(CCc1nc2ccccc2n1-c1ccccc1)NCCO | 33.3% | 3.26 µM [falling, single point] | 29.1 µM [rising, single point]
30 | O=C(CN(C(=O)CNC(=O)c1ccco1)c1ccc(F)cc1)NC1CCCCC1 | -39.7% | – | 23.1 µM [falling, partial curve]
31 | Cc1cc(NS(=O)(=O)c2ccc(NC(=O)/C=C/c3cccc(Cl)c3)cc2)no1 | 4.69% | – | –
32 | COc1ccc(N(C(=O)Cn2nnc(-c3ccc(C)o3)n2)C(C(=O)NC2CCCC2)c2ccncc2)cc1 (centres undefined) | 17.1% | 3.55 µM [rising, single point] | –
33 | CCN(CC)c1ccc(NC(=O)CCNS(=O)(=O)c2ccc3c(c2)CCC(=O)N3)c(C)c1 | 1.15% | 5.8 µM [falling, single point] | –
34 | CCOC(=O)C1=C(CC)Nc2ccccc2N=C1NC(=O)c1ccc(S(=O)(=O)N2CCOCC2)cc1 | 23.5% | 32.6 µM [rising, single point] | –
35 | Cc1cccc(CSCc2ccc(C(=O)O)o2)c1 | 12.3% | 0.00461 µM [rising, full curve] | –
36 | Cc1ccc(C(O)(c2ccccc2)c2ccccc2C(C)N(C)C)c(C)c1 (centres undefined) | -33.9% | 29.1 µM [falling, single point] | 32.6 µM [falling, single point]
37 | CCCCn1c(N)c(N(CCOC)C(=O)COc2ccc(C(C)=O)cc2)c(=O)[nH]c1=O | -20.4% | – | 0.82 µM [falling, full curve, poor fit]
38 | Cc1ccccc1NC(=O)c1cn2c(nc3ccccc32)c(C#N)c1C | 13.6% | 0.092 µM [rising, full curve, poor fit] | –
39 | COc1ccc(C(=O)NCCOc2ccccc2Cl)c(OC)c1OC | 23.6% | 6.51 µM [falling, single point] | 0.82 µM [rising, full curve, poor fit]
40 | COc1ccc(C2CC(c3ccc(C)cc3)Nc3nc(N)nn32)cc1 (centres undefined) | -1.29% | 0.461 µM [rising, full curve, poor fit] | –
41 | N#Cc1c(N2CCCC(O)C2)nc(N)c2c(N)nc3c(c12)CC(=O)N3C12CC3CC(CC(C3)C1)C2 (centres undefined) | -53.5% | – | 29.1 µM [falling, single point]
42 | Cn1c(Cn2c(=O)sc3ccccc32)nnc1SCc1ccccn1 | – | 16.4 µM [falling, partial curve] | –

Reformatted: results already given.

| Row | SMILES | cell number change | AC50 [1] | AC50 [2] |
| --- | --- | --- | --- | --- |
| 23 | Cc1onc(-c2c(F)cccc2Cl)c1C(=O)NC(=S)NC1CCSC1=O (centres undefined) | -51.8% | 29.1 µM [falling, single point] | 32.6 µM [falling, single point] |
| 35 | Cc1cccc(CSCc2ccc(C(=O)O)o2)c1 | 12.3% | 0.00461 µM [rising, full curve] | – |

(continued)

Row | SMILES | cell number change | AC50 [1] | AC50 [2]
43 | COc1cc(/C=C(\C#N)C(=O)Nc2ccccn2)ccc1O | -12.6% | 0.326 µM [falling, single point] | –
44 | CC(NCC1COc2ccccc2O1)C(=O)NCc1ccccc1 (centres undefined) | 20% | – | 0.00461 µM [rising, full curve, poor fit]
45 | CC(C)(C)C(=O)N/C(N)=N/c1nc2ccccc2o1 | -3.53% | – | –
46 | CCC(=O)Nc1cccc2ccccc12 | 0.682% | 0.731 µM [falling, full curve, poor fit] | –
47 | N/C(=N\OC(=O)c1ccc(Cl)cc1)c1ccn[nH]1 | 40.2% | 29.1 µM [rising, single point] | 23.1 µM [rising, partial curve]
48 | CC(C)n1cnc2c(N(C)c3ccccc3)nc(N(CCN(C)C)Cc3ccccc3)nc21 | -36.8% | 10.3 µM [falling, single point] | 32.6 µM [falling, single point]
49 | COc1ccc(NS(=O)(=O)c2cccc(-c3nnc4n3CCCCC4)c2)cc1 | -22.4% | 0.291 µM [falling, full curve, poor fit] | –
50 | COc1ccc(S(=O)(=O)N(C)C)cc1NC(=O)COC(=O)CC1CCCC1 | -15.8% | 6.51 µM [rising, single point] | –
51 | O=C(c1cccnc1NCc1ccc(F)cc1)N1CCOCC1 | 3.19% | 6.51 µM [falling, single point] | –
52 | O=C1c2ccccc2-c2nnc(-c3ccc(F)cc3)cc21 | -10.7% | – | –
53 | CSc1sc(-c2n[nH]c(=S)n2C)c2c1C=CCC2 | 12% | 20.6 µM [rising, single point] | –
54 | COc1cccc(OCc2cc(C(=O)N3CCN(c4ccccc4OC)CC3)no2)c1 | 22.6% | 14.6 µM [rising, partial curve, poor fit] | –
55 | CCc1nc(SCC(=O)Nc2c(C)n(C)n(-c3ccccc3)c2=O)n[nH]1 | -2.35% | – | –
56 | N#CCCn1nnc(-c2ccccc2F)n1 | 32% | 29.1 µM [falling, single point] | 29.1 µM [rising, single point]
57 | CCOc1ccc(N2C(=O)CC(Cc3ccccc3OC)C2=O)cc1 (centres undefined) | 8.42% | – | –
58 | Cc1ccc(NS(=O)(=O)c2cccc(C(=O)NCCCN3CCOCC3)c2)cc1 | -0.722% | – | –
59 | CC(C)(C)C(=O)N1CCn2c1nc1ccccc12 | -41.1% | 14.6 µM [falling, partial curve] | 3.66 µM [falling, partial curve]
60 | Cc1onc(C(=O)N2CCC(C(N)=O)CC2)c1-c1ccccc1Cl | -13.3% | 0.58 µM [falling, full curve, poor fit] | –
61 | CC(C)(CNC(=O)CCC1CCCC1)CNC(=O)CCC1CCCC1 | -6.36% | 29.1 µM [falling, single point] | –

Source: PubChem BioAssay AID2685 (National Center for Advancing Translational Sciences (NCATS), 2010)
